Earlier results in US20220127576A1, “COMPOSITIONS AND METHODS FOR STEM CELL THERAPY” (Arizona Board of Regents on Behalf of the University of …, priority 2019, published 2022).
Some results were stated once for a whole list of compounds, not compound by compound. Some compounds share one range, which may span the group rather than tell each member.

conditions: literature; cited from earlier work

Time of peak serum concentrations after oral administration, 1.5 to 4 h:
CC(C)NCC(O)COc1ccc(COCCOC(C)C)cc1 (stereo not shown) [bisoprolol], COc1ccccc1OCCNCC(O)COc1cccc2[nH]c3ccccc3c12 (stereo not shown) [carvedilol], CC(C)(C)NCC(O)COc1cccc2c1CC(O)C(O)C2 (stereo not shown) [nadolol], O=C(Nc1c(Cl)cncc1Cl)c1ccc(OC(F)F)c(OCC2CC2)c1 [roflumilast]
